Some of the results follow.

The assay has as its target T1, OsSMF1 (Oryza sativa, UniProt Q6ZLB0 1-436).
T1 sequence: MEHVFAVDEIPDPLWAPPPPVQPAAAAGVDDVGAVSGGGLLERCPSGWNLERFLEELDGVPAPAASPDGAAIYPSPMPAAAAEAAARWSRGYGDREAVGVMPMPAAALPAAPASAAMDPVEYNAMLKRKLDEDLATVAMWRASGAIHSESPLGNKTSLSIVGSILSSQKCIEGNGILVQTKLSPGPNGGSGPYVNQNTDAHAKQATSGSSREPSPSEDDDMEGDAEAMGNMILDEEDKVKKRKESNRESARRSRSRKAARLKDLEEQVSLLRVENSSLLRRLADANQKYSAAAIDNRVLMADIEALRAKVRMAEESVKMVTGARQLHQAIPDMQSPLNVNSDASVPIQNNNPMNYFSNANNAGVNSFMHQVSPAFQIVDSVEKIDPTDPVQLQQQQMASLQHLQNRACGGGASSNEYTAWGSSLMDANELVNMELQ
As to the kind of experiment: protein-binding microarray (RPBM); PBS, 2% BSA, 51.3 ng/ul salmon testes DNA, 50 uM zinc acetate, 200 nM TF, 25 C, 1 h; high values mean tight binding. The following applies: protein: recombinant; tags: N-terminal polyhistidine and DsRed monomer fusion (pET32a); chain copies: 2; label: CyDye5-dUTP incorporated in the synthesized complementary strand; 3' TTTTT single-stranded linker to array surface; dsDNA, one strand shown. In outline:
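For the binding signal, per-feature fluorescence intensity was read in arbitrary units on an Axon 4000B scanner. Before scanning, a 2% BSA-blocked custom Agilent array made double-stranded with Cy5-dUTP was washed after 1 h at 25 °C with 200 nM protein and 50 µM zinc acetate. The proteins were Ni–NTA-purified transcription factors with N-terminal polyhistidine and DsRed fusions, expressed in E. coli BL21-CodonPlus.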
Consider “AGAATTCCGTGATACGCGCATACGCGTCGACAAGAGAAATCGGAGTCACCTAGTGCAG”, for which the binding signal is 3280 fluorescence intensity (a.u.).

As for “CCCCTAAAACATGATGAGTGACTTGTTTGAGCATTTTATACGGAGTCACCTAGTGCAG”, the binding signal was 4600 fluorescence intensity (a.u.). As to “CCGGATCTTCAGCAGAGTCGTGTCACCTGTTTTGATCGTTCGGAGTCACCTAGTGCAG”, the binding signal was 3890 fluorescence intensity (a.u.). “GTTTTGACCCCGGTTTTGTCCCACGTGGCGGCTGAGTCAGCGGAGTCACCTAGTGCAG”: the binding signal is 30400 fluorescence intensity (a.u.). Take “GCTGGCAGCCGCTCCCTCTCGCTATGCTAAGTCGACATGCCGGAGTCACCTAGTGCAG”: the binding signal was 3520 fluorescence intensity (a.u.). As for “TTCCTCTGACTTGTAGCTCTACAACTACGCGTCGTTTTCTCGGAGTCACCTAGTGCAG”, the binding signal is 4860 fluorescence intensity (a.u.). As for “GCACGGCACGGCCCACAAGCGGGCGTGCCTGGGCCGGCTACGGAGTCACCTAGTGCAG”, the figure is 22600 fluorescence intensity (a.u.); as for “GGTGGGCCGGACCTGGCCCATATGTCACGTGACAAGCTGCCGGAGTCACCTAGTGCAG”, 4070 fluorescence intensity (a.u.); as for “TCGCATGACGTCATCGTCAACTTGTTTCAACTTTTCCATCCGGAGTCACCTAGTGCAG”, 25300 fluorescence intensity (a.u.). For “ACCTGGCCCCGTTGCTACCGCTGATCTGGCTTCGTGGACCCGGAGTCACCTAGTGCAG”, the binding signal was 5210 fluorescence intensity (a.u.).

On to “TAGGAGTTAGGAGGCATCTGCGTCAAGCATTCTCCTGCTGCGGAGTCACCTAGTGCAG”, for which the binding signal was 3950 fluorescence intensity (a.u.). As for “TATTCTCAATATTGTCGTAGGAGTAATTTTCTACTGGTTTCGGAGTCACCTAGTGCAG”, the figure is 23300 fluorescence intensity (a.u.); as for “ATTCTCTGACCTAAATGTCTATTCCACGTTCAACCATTTTCGGAGTCACCTAGTGCAG”, 3540 fluorescence intensity (a.u.); as for “ATGCTTTGCGACTTGCGAGAAGAACTTCTCGTCTTCTCAACGGAGTCACCTAGTGCAG”, 25200 fluorescence intensity (a.u.). In the case of “GGCTAGGCCGAAGACAGTATGGGCCATTCTCGTCAGCGCCCGGAGTCACCTAGTGCAG”, the binding signal was 3760 fluorescence intensity (a.u.). For the sequence “CTCATCCCCGTGCGCTGCTGCTGCTGTGTCGTCGTCGTCGCGGAGTCACCTAGTGCAG”, the binding signal is 3210 fluorescence intensity (a.u.). Take “GAATGACATTGCCAGCTGTGATAACTAAGTATTTGTGGACCGGAGTCACCTAGTGCAG”: the binding signal was 4820 fluorescence intensity (a.u.). As for “TTCGAGGGATATCTCCTCGTTATTTACATGTCATCTAAATCGGAGTCACCTAGTGCAG”, the figure is 4100 fluorescence intensity (a.u.). As for “CCATACCTCCTATGACAGCTCTGATGATTCCCTTGATTATCGGAGTCACCTAGTGCAG”, the figure is 3350 fluorescence intensity (a.u.); as for “ACGCGACGGCCACAAGGTGTTCGACGCCGTCTCGCCGGAGCGGAGTCACCTAGTGCAG”, 3280 fluorescence intensity (a.u.); as for “GTCTACGTGATGTGTCCGCGTGAAAAGTAACGTGGGCCCCCGGAGTCACCTAGTGCAG”, 5440 fluorescence intensity (a.u.). As for “CTCCGCGACGAACTGCCCCGTCGTGTGTCCACGTGGCTCACGGAGTCACCTAGTGCAG”, the figure is 12600 fluorescence intensity (a.u.); as for “ATTTTGTTTGTTGCATTTGGCATCATCATCTGGAAGAGAGCGGAGTCACCTAGTGCAG”, 3200 fluorescence intensity (a.u.); as for “TGCCGATAGACACCGCGCCGTCTGCCATGCTGACGTGTCGCGGAGTCACCTAGTGCAG”, 21600 fluorescence intensity (a.u.). Turning to “ATGAAGGATGCTTAAAAGTCTATTTTGCCTCGGCAAAATACGGAGTCACCTAGTGCAG”, the binding signal was 28700 fluorescence intensity (a.u.). As to “GGCCCAAATTCCAAACGTGGATGCAAACTCTGACTCTGACCGGAGTCACCTAGTGCAG”, the binding signal is 3400 fluorescence intensity (a.u.). “ACTCCACTTGTGTTGCTACAACTTTACTAAGCTAGCTCAGCGGAGTCACCTAGTGCAG”: the binding signal is 3210 fluorescence intensity (a.u.). As for “CTGAAATTCCCTTCCGATATCTAGTCAAACGTCTGATATGCGGAGTCACCTAGTGCAG”, the binding signal was 3780 fluorescence intensity (a.u.). In the case of “AAGGATGGTTGGTTGGTTGGTTGGTTGGTGAGTTGTCTCCCGGAGTCACCTAGTGCAG”, the binding signal was 6530 fluorescence intensity (a.u.). As for “CTCAATGCGGTTTGATTGACGTGTAGAGCAGCCATTGGCCCGGAGTCACCTAGTGCAG”, the binding signal is 8000 fluorescence intensity (a.u.). In the case of “AAAGTTTCATGCCTGAGATGTTATGTTACGTGTCTATCCACGGAGTCACCTAGTGCAG”, the binding signal was 7680 fluorescence intensity (a.u.). With “CGGCTTCCCGACGGTGGCGGCGCACGTGGGCGAGGCTGAGCGGAGTCACCTAGTGCAG”, the binding signal is 3800 fluorescence intensity (a.u.). Turning to “AGATTTTGTTACTGCATTTCAACTGTTCCGTTACTGCATTCGGAGTCACCTAGTGCAG”, the binding signal was 3650 fluorescence intensity (a.u.). In the case of “GCGAACGAACGGCGTGGATCTGAAGGTGGTGAGGTCGGCGCGGAGTCACCTAGTGCAG”, the binding signal was 3850 fluorescence intensity (a.u.). As for “TTCGTCTCGCAGTTTACAGGCAAAATCTGTATTTTGTTTTCGGAGTCACCTAGTGCAG”, the figure is 3440 fluorescence intensity (a.u.); as for “AATAACATATTTTGATAAGTTTGGTGACCTGGACGACACGCGGAGTCACCTAGTGCAG”, 4760 fluorescence intensity (a.u.). As to “GCCCCGCTTCCTTTATTAGGCCGCGTCACCCCTCTCTCCGCGGAGTCACCTAGTGCAG”, the binding signal is 11600 fluorescence intensity (a.u.). As for “TGGCAAGGATGGAGATTGTTTTGGAAAGATATTTTGCGCCCGGAGTCACCTAGTGCAG”, the figure is 3550 fluorescence intensity (a.u.); as for “CCTGTTGCTAACGGCAGTGCCTATGAGATACAGTTTCTGACGGAGTCACCTAGTGCAG”, 3700 fluorescence intensity (a.u.). For “GTGGAGACCAATGACCTGTGGTTCGTCATCGGCGAGGAGGCGGAGTCACCTAGTGCAG”, the binding signal was 4110 fluorescence intensity (a.u.). As to “CTTGTAATTTATGGCTATATACACCTGTCAGCCGGGACTACGGAGTCACCTAGTGCAG”, the binding signal was 3420 fluorescence intensity (a.u.). Regarding “AAGCGTCACGGTTTGAGTGGTACGTGTCTCCAGCGCCGTGCGGAGTCACCTAGTGCAG”, the binding signal is 3880 fluorescence intensity (a.u.).

Values taken from article PMC7819943, “Rice protein-binding microarrays: a tool to detect cis-acting elements near promoter regions in rice”.
